Experimental data from PubChem BioAssay AID2685 (National Center for Advancing Translational Sciences (NCATS), 2010).
Some of the results follow. The main result of the screen is listed elsewhere. These columns were measured beside it and carry no call. Compounds called inactive in the main read-out are mostly missing here. Potencies come from curve fits of mixed quality, noted in brackets.

Assay: qHTS Assay for Lipid Storage Modulators in Drosophila S3 Cells;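 on cell number change: cells counted by Cell Tracker Red CMTPX staining in the red channel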
Conditions: BODIPY lipid droplet fluorescence, 18-24 h; for cell number change: measured here: cell count max response, cells fed with added oleic acid
Procedure, shortened: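 Laser-scanning cytometry quantifies lipid droplet accumulation (500–530 nm total intensity; droplet/cell object ratio) in oleic acid-fed (400 uM added) Drosophila S3 cells treated with a concentration series. 20 uM Triacsin C defined 100% inhibition.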

[1] = measured here: cell number channel AC50, cells fed with added oleic acid
[2] = measured here: lipid fluorescence (Fed channel) AC50, cells fed with added oleic acid

Structure (SMILES)	cell number change [%]	AC50 [1]	AC50 [2]
CC(=O)Nc1ccc(S(=O)(=O)n2cnc(C)c2)cc1	-0.759	–	–
O=c1[nH]c(C2CCN(S(=O)(=O)c3ccc(S(=O)(=O)NC4CC4)cc3)CC2)nc2c1nnn2Cc1ccccc1	-8.97	–	–
CCC(C)c1ccc(OCCCCN2CCOCC2)cc1 (centres undefined)	109	20.6 µM [rising, single point]	–
CN(C)c1ccc(C(=S)N2CCN(S(=O)(=O)c3ccccc3)CC2)cc1	-9.17	–	29.1 µM [rising, single point]
Cn1c(Cl)c(/C=N/OC(=O)C2CC2)c2ccccc21	–	–	0.794 µM [rising, single point]
COc1ccc(OC)c(S(=O)(=O)N(C)CC(=O)N2CCOCC2)c1	3.47	–	29.1 µM [rising, single point]
COCCNC(=O)c1ccc(CS(=O)(=O)c2ccc(Cl)cc2)o1	-35.4	29.1 µM [falling, single point]	–
CC(=O)NC(Cc1c[nH]c2ccccc12)C(=O)N1CCc2ccccc2C1 (centres undefined)	33.3	18.4 µM [rising, single point]	29.1 µM [rising, single point]
Cc1ccc([N+](=O)[O-])cc1N=C(c1cccc([N+](=O)[O-])c1)N1CCOCC1	-31	0.184 µM [falling, full curve, poor fit]	29.1 µM [falling, single point]
COCc1[nH][nH]c(=O)c1C=Nc1ccc(OC(F)(F)F)cc1	13.8	–	–
COc1ccc(CCNC(=O)C2CCN(C(=O)c3ccccc3)CC2)cc1	-7.14	–	–
O=C(N/N=C/c1ccc(O)cc1O)c1ccncc1	87.3	3.26 µM [rising, full curve]	6.51 µM [rising, partial curve]
COCCN(C(=O)COC(=O)CCc1ccccc1)c1c(N)n(Cc2ccccc2)c(=O)[nH]c1=O	-13.1	–	23.1 µM [rising, partial curve]
FC(F)(F)c1ccc(Oc2ccc3c(C(F)(F)F)cc(C(F)(F)F)nc3n2)cc1	-7.16	–	–
Cc1ccc(S(=O)(=O)N/N=C/c2cccc3c2OCCO3)cc1	10.3	4.61 µM [falling, single point]	–
Cc1noc(/C=C/N(C)C)c1S(=O)(=O)N1CCCC(C(=O)Nc2ccccc2F)C1 (centres undefined)	-42.4	2.31 µM [falling, partial curve]	20.6 µM [falling, single point]
CC(C)(CNC(=O)C1c2ccccc2-c2ccccc21)N1CCOCC1	9.52	–	–
COc1cc2cc(C(c3nnnn3C(C)(C)C)N3CCc4ccccc4C3)c(=O)[nH]c2cc1OC (centres undefined)	17.3	–	7.31 µM [rising, partial curve]
COc1ccccc1/C=N/n1cnnc1	32.5	9.2 µM [rising, partial curve]	–
Cn1c(=O)[nH]c(=O)c2c1nc1n2CC(COc2ccc3ccccc3c2)O1 (centres undefined)	50.1	3.66 µM [rising, partial curve]	13 µM [rising, partial curve]

Structure (SMILES)	cell number change [%]	AC50 [1]	AC50 [2]
O=C(c1ccc(-c2nnc(Nc3cccc(Cl)c3)c3ccccc23)cc1)N1C[C@H]2C[C@H](C1)c1cccc(=O)n1C2	57.6	–	–
O=C(COC(=O)c1ccccn1)NCc1cccc(Cl)c1	-12	–	–
CC(Oc1ccccc1)C(=O)Nc1ccc(NC(=O)c2ccccc2)cc1 (centres undefined)	-20	–	0.00651 µM [falling, full curve, poor fit]
CC(=O)c1ccc(N(CC(=O)NC2CCCC2)C(=O)CCC(=O)Nc2cc(C)on2)cc1	28.2	3.66 µM [rising, partial curve, poor fit]	–
O=C(Oc1cccc([N+](=O)[O-])c1)N1CCCCC1	34.4	1.16 µM [rising, full curve, poor fit]	25.9 µM [rising, single point]
c1cncc(-c2ccc3[nH]ccc3c2)c1	-48.6	0.92 µM [falling, full curve, poor fit]	29.1 µM [falling, single point]
N#C/C(=N\Nc1ccc([N+](=O)[O-])cc1)C(N)=S	-4.08	–	0.13 µM [falling, full curve, poor fit]
O=C(O)CSCc1cnn(-c2ccccc2)c1-n1cccc1	-39.2	32.6 µM [falling, single point]	–
S=C(Nc1ccccc1)c1nc2ccccc2s1	-4.27	6.51 µM [falling, single point]	8.2 µM [falling, partial curve]
Cc1nc(C)c2c(=O)cc(-c3ccccc3)[nH]c2n1	-3.58	–	5.8 µM [falling, single point]
O=C(COC(=O)c1ccc(N2CCCC2=O)cc1)c1ccccc1	16.2	–	–
Cc1ccc(C(=O)Nc2c3c(nn2C(C)(C)C)CS(=O)(=O)C3)cc1[N+](=O)[O-]	-1.21	–	–
COCCn1c(SCCN2CCOCC2)nc2c1c(=O)[nH]c(=O)n2C	-17.9	–	0.206 µM [falling, full curve, poor fit]
Cc1nn(C)c(C)c1S(=O)(=O)N1CCC(C(=O)Nc2ccc3c(c2)OCCO3)CC1	17.3	–	0.82 µM [rising, full curve, poor fit]
CCN(CC)CCCC(C)NC(=O)c1ccc(C(F)(F)F)cc1 (centres undefined)	-3.39	–	–
COc1ccc2[nH]c(C)c(CCN3C(=O)OC(C)(C)C3(C)O)c2c1 (centres undefined)	40.7	23.1 µM [rising, single point]	–
C=CCn1c(SCC(=O)NCc2ccc3c(c2)OCO3)nnc1C1COc2ccccc2O1 (centres undefined)	-60.9	23.1 µM [falling, partial curve]	–
COc1ccc(CC(NC(C)=O)C(=O)NC2CCN(C(=O)c3cc(OC)c(OC)c(OC)c3)CC2)cc1 (centres undefined)	14.8	–	4.11 µM [rising, single point]
COc1ccc(Oc2ncnc3c2ncn3Cc2ccccc2)cc1	–	0.326 µM [rising, full curve, poor fit]	0.651 µM [rising, full curve]

3 entries picked at random from those above, as already listed:
Structure (SMILES)	cell number change [%]	AC50 [1]	AC50 [2]
CCN(CC)CCCC(C)NC(=O)c1ccc(C(F)(F)F)cc1 (centres undefined)	-3.39	–	–
O=C(COC(=O)c1ccc(N2CCCC2=O)cc1)c1ccccc1	16.2	–	–
COc1ccc2[nH]c(C)c(CCN3C(=O)OC(C)(C)C3(C)O)c2c1 (centres undefined)	40.7	23.1 µM [rising, single point]	–
